Results are given in words; binding and its absence hold for the method and conditions named. Some binding calls cover weakened binding; strength is not graded here. Tags and fused reporters may be left off the sequences shown.
T1: Lin28 full length fused to RFP-MBD (bait) (human) (UniProt Q9H9Z2)
T1 sequence: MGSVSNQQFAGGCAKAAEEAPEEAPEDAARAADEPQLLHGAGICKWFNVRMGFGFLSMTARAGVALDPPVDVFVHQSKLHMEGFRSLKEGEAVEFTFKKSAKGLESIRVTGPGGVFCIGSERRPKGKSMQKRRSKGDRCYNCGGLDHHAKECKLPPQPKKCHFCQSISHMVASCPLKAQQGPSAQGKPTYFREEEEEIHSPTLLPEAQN

Protein sequences, listed by entry. Tags and fused reporters are not part of them.
UniProt P67809: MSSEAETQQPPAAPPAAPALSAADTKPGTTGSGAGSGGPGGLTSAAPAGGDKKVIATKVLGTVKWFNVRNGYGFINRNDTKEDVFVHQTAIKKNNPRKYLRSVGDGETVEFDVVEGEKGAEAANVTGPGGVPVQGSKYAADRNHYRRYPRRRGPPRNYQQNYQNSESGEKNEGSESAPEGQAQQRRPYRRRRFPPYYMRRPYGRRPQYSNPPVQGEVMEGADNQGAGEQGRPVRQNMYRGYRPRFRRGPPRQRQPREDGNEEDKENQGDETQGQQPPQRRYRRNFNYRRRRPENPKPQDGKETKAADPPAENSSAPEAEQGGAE

B1: GFP-labeled full length Lin28 (wild type) (protein, UniProt Q9H9Z2 1-209)
chain: T1 sequence
B2: GFP-labeled full length CSDE1 (prey) (protein, UniProt O75534-3 1-813)
chain: MENVFTVSSDPHPSPAAPPSLSLPLSSSSTSSGTKKQKRTPTYQRSMSFDPNLLHNNGHNGYPNGTSAALRETGVIEKLLTSYGFIQCSERQARLFFHCSQYNGNLQDLKVGDDVEFEVSSDRRTGKPIAVKLVKIKQEILPEERMNGQEVFYLTYTPEDVEGNVQLETGDKINFVIDNNKHTGAVSARNIMLLKKKQARCQGVVCAMKEAFGFIERGDVVKEIFFHYSEFKGDLETLQPGDDVEFTIKDRNGKEVATDVRLLPQGTVIFEDISIEHFEGTVTKVIPKVPSKNQNDPLPGRIKVDFVIPKELPFGDKDTKSKVTLLEGDHVRFNISTDRRDKLERATNIEVLSNTFQFTNEAREMGVIAAMRDGFGFIKCVDRDVRMFFHFSEILDGNQLHIADEVEFTVVPDMLSAQRNHAIRIKKLPKGTVSFHSHSDHRFLGTVEKEATFSNPKTTSPNKGKEKEAEDGIIAYDDCGVKLTIAFQAKDVEGSTSPQIGDKVEFSISDKQRPGQQVATCVRLLGRNSNSKRLLGYVATLKDNFGFIETANHDKEIFFHYSEFSGDVDSLELGDMVEYSLSKGKGNKVSAEKVNKTHSVNGITEEADPTIYSGKVIRPLRSVDPTQTEYQGMIEIVEEGDMKGEVYPFGIVGMANKGDCLQKGESVKFQLCVLGQNAQTMAYNITPLRRATVECVKDQFGFINYEVGDSKKLFFHVKEVQDGIELQAGDEVEFSVILNQRTGKCSACNVWRVCEGPKAVAAPRPDRLVNRLKNITLDDASAPRLMVLRQPRGPDNSMGFGAERKIRQAGVID

Experiments:
[1] = molecular target: T1, Lin28 full length fused to RFP-MBD (bait) (human); experiment: microtubule bench assay (a GFP-labelled prey is brought onto microtubules by a bait fused to RFP-MBD); HeLa cells co-expressing bait (RFP-MBD fusion, on microtubules) and GFP-labelled prey for 24 h; fixed with methanol then PFA; Spearman's coefficient or prey versus bait intensity on microtubules
[2] = molecular target: YB-1 full length fused to RFP-MBD (bait) (human) (UniProt P67809); experiment: as above

| Binder | binding [1] | binding [2] |
| --- | --- | --- |
| B1 | binds |  |
| B2 | binds | binds |

From PMC7979924
